According to publication PMC7412561 (Materials, 2020):
Non-standard residues stand in square brackets, D forms with d. Hyp = O=C(O)[C@@H]1C[C@@H](O)CN1

Assay: general procedure: Fmoc solid-phase peptide synthesis; 2-chlorotrityl chloride resin, 1.0 mmol/g; DMT/NMM/TosO-, NMM
Conditions: whole synthesis, RP-HPLC, scale of the general procedure 1.0 mmol

H-G[Hyp]PA[Hyp]P-OH
purity (crude or final not stated): 98.95%
